# The other results are listed elsewhere or left out.
# The chains behind the UniProt entries cited, without tags or fusion partners. Where a name states a change or a piece, a line headed by the entry shows the natural chain unless it says otherwise.
# UniProt Q15428: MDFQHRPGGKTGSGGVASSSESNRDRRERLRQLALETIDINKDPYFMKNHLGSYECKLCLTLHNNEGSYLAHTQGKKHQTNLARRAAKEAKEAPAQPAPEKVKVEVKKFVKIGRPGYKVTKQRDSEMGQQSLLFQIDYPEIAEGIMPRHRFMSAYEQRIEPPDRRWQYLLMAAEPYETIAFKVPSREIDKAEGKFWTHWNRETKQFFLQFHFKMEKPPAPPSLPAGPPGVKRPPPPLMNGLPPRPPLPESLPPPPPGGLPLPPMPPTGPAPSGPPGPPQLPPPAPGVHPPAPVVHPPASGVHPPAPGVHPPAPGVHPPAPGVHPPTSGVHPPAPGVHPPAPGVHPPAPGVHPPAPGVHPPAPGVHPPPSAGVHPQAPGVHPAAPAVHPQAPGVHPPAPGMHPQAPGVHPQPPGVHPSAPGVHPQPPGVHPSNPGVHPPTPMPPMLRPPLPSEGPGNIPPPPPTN
# UniProt Q8IZQ5, whole entry, looked up: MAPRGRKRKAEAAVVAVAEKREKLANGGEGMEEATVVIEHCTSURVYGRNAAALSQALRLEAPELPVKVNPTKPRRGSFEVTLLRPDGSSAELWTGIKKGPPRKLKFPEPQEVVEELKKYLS
# UniProt Q9Y6D0, whole entry, looked up: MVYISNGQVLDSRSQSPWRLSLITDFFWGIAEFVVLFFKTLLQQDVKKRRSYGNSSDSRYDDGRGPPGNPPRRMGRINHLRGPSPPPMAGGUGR
# UniProt Q8IUQ4: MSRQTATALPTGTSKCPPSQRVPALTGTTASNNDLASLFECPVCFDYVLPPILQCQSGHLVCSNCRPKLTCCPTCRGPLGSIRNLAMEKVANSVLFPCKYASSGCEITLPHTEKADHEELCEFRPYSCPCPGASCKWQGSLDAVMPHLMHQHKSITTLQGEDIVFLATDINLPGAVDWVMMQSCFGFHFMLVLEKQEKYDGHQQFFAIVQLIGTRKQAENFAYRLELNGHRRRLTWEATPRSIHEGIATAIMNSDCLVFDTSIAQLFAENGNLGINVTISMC
# UniProt Q99963: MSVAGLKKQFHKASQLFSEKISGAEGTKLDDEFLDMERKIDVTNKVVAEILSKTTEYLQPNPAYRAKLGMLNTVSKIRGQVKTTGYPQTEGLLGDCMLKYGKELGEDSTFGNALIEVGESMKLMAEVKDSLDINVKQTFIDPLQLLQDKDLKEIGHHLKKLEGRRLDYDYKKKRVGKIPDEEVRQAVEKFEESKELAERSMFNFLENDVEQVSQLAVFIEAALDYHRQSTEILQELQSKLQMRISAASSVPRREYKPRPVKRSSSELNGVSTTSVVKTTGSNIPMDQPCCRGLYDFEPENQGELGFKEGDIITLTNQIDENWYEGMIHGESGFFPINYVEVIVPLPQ
# UniProt Q9NZV5, whole entry, looked up: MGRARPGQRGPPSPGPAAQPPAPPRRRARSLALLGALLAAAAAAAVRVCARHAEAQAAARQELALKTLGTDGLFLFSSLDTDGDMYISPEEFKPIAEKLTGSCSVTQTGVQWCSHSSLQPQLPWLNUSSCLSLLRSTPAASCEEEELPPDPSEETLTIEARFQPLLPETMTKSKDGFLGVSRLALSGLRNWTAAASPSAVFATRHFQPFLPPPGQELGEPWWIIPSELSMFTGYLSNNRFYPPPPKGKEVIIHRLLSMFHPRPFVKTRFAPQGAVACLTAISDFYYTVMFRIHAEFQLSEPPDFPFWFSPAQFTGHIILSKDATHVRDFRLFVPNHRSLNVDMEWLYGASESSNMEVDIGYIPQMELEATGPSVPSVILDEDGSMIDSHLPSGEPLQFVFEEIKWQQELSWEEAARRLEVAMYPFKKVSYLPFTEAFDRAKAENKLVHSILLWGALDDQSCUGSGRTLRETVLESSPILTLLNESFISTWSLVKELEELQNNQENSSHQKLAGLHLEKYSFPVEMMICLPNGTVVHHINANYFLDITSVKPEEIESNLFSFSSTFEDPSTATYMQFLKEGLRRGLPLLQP
# UniProt A1X283: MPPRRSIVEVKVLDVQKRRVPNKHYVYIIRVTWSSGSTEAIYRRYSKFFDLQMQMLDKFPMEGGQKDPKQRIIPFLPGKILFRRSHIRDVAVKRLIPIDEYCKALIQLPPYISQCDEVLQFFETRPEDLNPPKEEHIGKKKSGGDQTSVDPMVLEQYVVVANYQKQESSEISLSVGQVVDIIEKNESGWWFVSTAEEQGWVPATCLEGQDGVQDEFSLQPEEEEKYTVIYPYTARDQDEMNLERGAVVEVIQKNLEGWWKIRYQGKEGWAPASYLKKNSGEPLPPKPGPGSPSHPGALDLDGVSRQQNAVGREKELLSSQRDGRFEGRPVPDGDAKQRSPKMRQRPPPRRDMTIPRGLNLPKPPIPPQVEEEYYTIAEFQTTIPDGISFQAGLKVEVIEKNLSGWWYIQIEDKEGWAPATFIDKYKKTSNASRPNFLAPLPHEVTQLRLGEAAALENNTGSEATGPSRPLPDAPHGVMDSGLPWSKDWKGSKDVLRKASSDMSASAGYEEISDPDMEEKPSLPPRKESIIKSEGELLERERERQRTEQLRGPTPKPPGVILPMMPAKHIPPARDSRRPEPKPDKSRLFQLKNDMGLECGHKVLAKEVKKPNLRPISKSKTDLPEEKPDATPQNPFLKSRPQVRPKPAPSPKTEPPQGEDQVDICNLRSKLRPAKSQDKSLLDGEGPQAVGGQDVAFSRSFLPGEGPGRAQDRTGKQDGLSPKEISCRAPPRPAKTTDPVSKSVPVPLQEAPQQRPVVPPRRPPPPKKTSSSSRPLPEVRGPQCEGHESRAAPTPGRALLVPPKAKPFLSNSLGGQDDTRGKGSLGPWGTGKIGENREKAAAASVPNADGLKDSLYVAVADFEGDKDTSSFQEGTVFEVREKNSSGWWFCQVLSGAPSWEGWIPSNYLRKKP
# UniProt Q9BX95: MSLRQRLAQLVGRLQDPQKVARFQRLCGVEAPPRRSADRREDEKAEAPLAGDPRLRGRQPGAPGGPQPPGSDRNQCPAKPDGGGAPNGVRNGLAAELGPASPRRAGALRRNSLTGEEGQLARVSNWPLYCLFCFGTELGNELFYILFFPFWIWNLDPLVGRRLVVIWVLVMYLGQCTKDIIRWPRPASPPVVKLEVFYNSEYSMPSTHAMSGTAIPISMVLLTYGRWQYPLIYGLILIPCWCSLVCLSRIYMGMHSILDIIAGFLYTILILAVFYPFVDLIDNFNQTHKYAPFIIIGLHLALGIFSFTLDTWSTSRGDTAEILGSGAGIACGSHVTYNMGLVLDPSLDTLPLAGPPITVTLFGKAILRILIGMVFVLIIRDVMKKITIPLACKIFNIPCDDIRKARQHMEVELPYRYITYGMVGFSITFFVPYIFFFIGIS
# UniProt Q8WV19: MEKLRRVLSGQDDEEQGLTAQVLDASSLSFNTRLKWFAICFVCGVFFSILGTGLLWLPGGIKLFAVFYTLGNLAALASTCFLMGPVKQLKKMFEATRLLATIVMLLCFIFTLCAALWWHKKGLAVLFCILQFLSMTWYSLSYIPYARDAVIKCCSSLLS
# UniProt O75563, whole entry, looked up: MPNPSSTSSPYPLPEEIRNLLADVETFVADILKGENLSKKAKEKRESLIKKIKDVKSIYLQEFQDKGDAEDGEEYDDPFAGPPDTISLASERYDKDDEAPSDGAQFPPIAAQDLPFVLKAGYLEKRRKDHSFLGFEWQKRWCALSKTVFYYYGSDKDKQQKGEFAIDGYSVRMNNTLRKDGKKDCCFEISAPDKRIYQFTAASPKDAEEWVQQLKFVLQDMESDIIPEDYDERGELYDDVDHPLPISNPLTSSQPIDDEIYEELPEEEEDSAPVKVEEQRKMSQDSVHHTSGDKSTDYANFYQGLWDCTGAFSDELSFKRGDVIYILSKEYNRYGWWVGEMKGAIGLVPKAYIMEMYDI
# UniProt Q9BWJ5: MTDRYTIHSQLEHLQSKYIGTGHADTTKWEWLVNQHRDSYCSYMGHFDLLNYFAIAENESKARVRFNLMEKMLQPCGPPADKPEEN
# Key:
# Assay in all cases: log2 fold change, soluble protein after heating vs DMSO (PISA); higher = thermal stabilisation; K562 cells, 10 uM, 30 min; active = over 0.2 and 3.5 SD of the protein, either way, in both replicates (recomputed)
# [1] = compound: CC1=C(C=C(C=C1)NC(=O)C2=CC(=CC=C2)C(C)(C)C#N)NC3=CC4=C(C=C3)N=CN(C4=O)C
# Summary of the method: (§1)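 Quantification of soluble protein used TMTpro 16plex LC-MS/MS, with channel sums equalised. Samples were the supernatant after 21,000xg for 90 min of pooled aliquots from K562 cells (2×10^6 cells/mL) treated with 10 μM compound for 30 min, heated for 3 min over 48°C-58°C, and extracted in PBS with 0.5% NP-40 at 4°C. Values, from duplicates, describe thermal stability against control samples on a log2 fold-change scale.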
# [2] = compound: CC1=C(C=C(C=C1)NC(=O)C2=CC(=CC=C2)N(C)C)NC(=O)C3=CC=C(C=C3)O
# Summary of the method: as §1
# [3] = compound: CC1=CC=C(C=C1)SC2=C3C=C(SC3=CN=C2)C(=O)N
# Summary of the method: as §1
# [4] = compound: CC1=NC(=CC=C1)C2=C(N=C(N2)C(C)(C)C)C3=CC4=NC=CN=C4C=C3
# Summary of the method: as §1
# Nexturastat A = compound: CCCCN(Cc1ccc(C(=O)NO)cc1)C(=O)Nc1ccccc1 [Nexturastat A]
# Summary of the method: as §1
# vemurafenib = compound: CCCS(=O)(=O)Nc1ccc(F)c(C(=O)c2c[nH]c3ncc(-c4ccc(Cl)cc4)cc23)c1F [vemurafenib]
# Summary of the method: as §1
# [5] = compound: CCCS(=O)(=O)Nc1ccc(F)c(C(=O)c2c[nH]c3ncc(Cl)cc23)c1F
# Summary of the method: as §1
# [6] = compound: CCCc1cc(C)[nH]c(=O)c1CNC(=O)c1cc(-c2ccnc(N3CCN(C)CC3)c2)cc2c1cnn2C(C)C
# Summary of the method: as §1
# givinostat = compound: CCN(CC)Cc1ccc2cc(COC(=O)Nc3ccc(C(=O)NO)cc3)ccc2c1 [givinostat]
# Summary of the method: as §1
# barasertib = compound: CCN(CCCOc1ccc2c(Nc3cc(CC(=O)Nc4cccc(F)c4)[nH]n3)ncnc2c1)CCOP(=O)(O)O [barasertib]
# Summary of the method: as §1
# [7] = compound: CC[C@@H]1C(=O)N(C)c2cnc(Nc3ccc(C(=O)NC4CCN(C)CC4)cc3OC)nc2N1C1CCCC1
# Summary of the method: as §1
# volasertib = compound: CC[C@@H]1C(=O)N(C)c2cnc(Nc3ccc(C(=O)N[C@H]4CC[C@H](N5CCN(CC6CC6)CC5)CC4)cc3OC)nc2N1C(C)C [volasertib]
# Summary of the method: as §1
# [8] = compound: CC[C@H](C)N1C=C(C2=C(C=C(C=C21)C3=CN=C(C=C3)N4CCNCC4)C(=O)NCC5=C(C=C(NC5=O)C)C)C
# Summary of the method: as §1
# epoxomicin = compound: CC[C@H](C)[C@@H](C(=O)N[C@@H]([C@@H](C)O)C(=O)N[C@@H](CC(C)C)C(=O)[C@]1(CO1)C)NC(=O)[C@H]([C@@H](C)CC)N(C)C(=O)C [epoxomicin]
# Summary of the method: as §1
# [9] = compound: CCn1c(C(=O)N(C2CC2)C2CC2)cc2c3c(ncn3C)c(Nc3cc(C)n(C)n3)nc21
# Summary of the method: as §1
# [10] = compound: CCn1cc(-c2ccnc3[nH]c(-c4cccc(CN(C)C)c4)cc23)c(-c2ccc(NC(=O)N(C)C)cc2)n1
# Summary of the method: as §1
# [11] = compound: CN(C)CC(=O)Nc1ccc2[nH]c(=O)c3ccccc3c2c1
# Summary of the method: as §1
# rosiglitazone = compound: CN(CCOC1=CC=C(C=C1)C[C@H]2C(=O)NC(=O)S2)C3=CC=CC=N3 (racemic) [rosiglitazone]
# Summary of the method: as §1
# [12] = compound: CN1C2=C(C3=C1C(=O)N(N=C3)CC4=CC(=CC=C4)N)SC(=C2)S(=O)C
# Summary of the method: as §1
# [13] = compound: CN1CCC(CNc2ccc3ncc(-c4cccc(OC(F)(F)F)c4)n3n2)CC1
# Summary of the method: as §1
Target,log2 fold change [1],log2 fold change [2],log2 fold change [3],log2 fold change [4],log2 fold change (Nexturastat A),log2 fold change (vemurafenib),log2 fold change [5],log2 fold change [6],log2 fold change (givinostat),log2 fold change (barasertib),log2 fold change [7],log2 fold change (volasertib),log2 fold change [8],log2 fold change (epoxomicin),log2 fold change [9],log2 fold change [10],log2 fold change [11],log2 fold change (rosiglitazone),log2 fold change [12],log2 fold change [13]
SF3A2 (UniProt Q15428),inactive: 0.022,inactive: -0.094,inactive: -0.029,inactive: 0.014,inactive: 0.058,inactive: -0.023,inactive: 0.04,inactive: -0.072,inactive: -0.009,inactive: 0.016,inactive: 0.099,inactive: -0.137,inactive: 0.017,inactive: -0.053,inactive: -0.147,inactive: -0.085,inactive: 0.02,inactive: 0.045,inactive: 0.006,inactive: 0.054
SELENOH (UniProt Q8IZQ5),inactive: 0.09,inactive: -0.011,inactive: 0.023,inactive: -0.035,inactive: 0.089,inactive: 0.042,inactive: 0.007,inactive: 0.075,inactive: 0.024,inactive: -0.031,inactive: 0.001,inactive: 0.01,inactive: -0.05,inactive: 0.058,–,inactive: -0.051,inactive: 0.041,–,inactive: 0.084,inactive: 0.065
SELENOK (UniProt Q9Y6D0),inactive: 0.25,–,–,–,inactive: -0.098,inactive: 0.137,–,inactive: -0.444,inactive: -0.008,inactive: -0.156,inactive: 0.283,–,inactive: -0.079,inactive: -0.176,inactive: 0.042,inactive: -0.041,inactive: 0.029,inactive: 0.066,–,inactive: -0.087
SIAH1 isoform 2 (UniProt Q8IUQ4),inactive: 0.048,–,inactive: 0.031,inactive: -0.054,inactive: -0.318,inactive: 0.032,inactive: 0.043,–,inactive: -0.17,inactive: -0.085,inactive: 0.073,inactive: 0.142,–,inactive: 0.306,inactive: 0.158,inactive: -0.063,inactive: 0.028,inactive: 0.379,inactive: 0.07,inactive: 0.073
SH3GL3 isoform 3 (UniProt Q99963),inactive: -0.155,inactive: -0.004,inactive: -0.008,–,–,inactive: 0.074,inactive: -0.016,inactive: -0.297,–,–,inactive: -0.063,inactive: -0.009,–,–,–,–,inactive: 0.046,–,–,–
SELENON (UniProt Q9NZV5),inactive: 0.011,inactive: 0.068,–,–,–,inactive: 0.038,–,–,–,–,–,–,–,–,–,–,inactive: -0.016,–,–,–
SH3PXD2B (UniProt A1X283),inactive: -0.029,–,–,–,inactive: -0.052,inactive: -0.145,–,inactive: 0.187,active: -0.548,inactive: 0.043,active: -2.01,–,inactive: -0.068,inactive: 0.048,–,inactive: 0.097,inactive: -0.019,–,–,active: -1.2
SGPP1 (UniProt Q9BX95),inactive: 0.039,–,inactive: -0.085,inactive: 0.007,inactive: -0.124,inactive: -0.005,inactive: -0.057,inactive: -0.306,inactive: -0.149,inactive: 0.066,inactive: -0.023,inactive: -0.037,inactive: 0.092,inactive: -0.021,inactive: 0.019,inactive: -0.001,inactive: -0.003,inactive: 0.035,inactive: -0.008,inactive: -0.22
SFT2D1 (UniProt Q8WV19),inactive: 0.053,inactive: 0.041,inactive: -0.068,–,–,–,inactive: 0.001,inactive: -0.114,–,–,inactive: 0.042,inactive: 0.288,–,–,–,–,–,–,–,–
SKAP2 (UniProt O75563),–,inactive: -0.047,inactive: -0.05,inactive: -0.08,–,–,inactive: -0.217,inactive: -0.009,inactive: -0.214,–,–,inactive: 0.373,–,–,inactive: 0.128,–,–,–,inactive: -0.109,–
SF3B5 (UniProt Q9BWJ5),inactive: 0.003,–,inactive: 0.072,inactive: 0.111,inactive: 0.042,inactive: -0.055,inactive: -0.027,inactive: -0.009,inactive: 0.129,inactive: -0.12,inactive: 0.089,inactive: -0.14,inactive: -0.057,active: 0.426,–,inactive: 0.035,inactive: 0.006,–,inactive: 0.082,inactive: 0.035

# Looked up above.
# log2 fold change (vemurafenib) with SELENON (UniProt Q9NZV5) is entered as inactive: 0.038
# log2 fold change [7] with SELENOK (UniProt Q9Y6D0) is entered as inactive: 0.283

# — the supplement of paper PMC10849652
